PubChem BioAssay AID1259425 | University of Nebraska Medical Center – 2018
In all, the deposit lists about 14,000 reagents; this is a part drawn at random. Not all columns of the deposit are shown. Not given: the time to read-out.

Test: 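Compare each knockdown with KSR1 silencing using changes in marker transcripts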 (primary screen)
Cells: HCT116 human colon cancer cells
Knock-down reagent: siRNA pool against human genes, 50 nM siRNA
Measured: 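After 50 nM siRNA pool, branched-DNA assay measures six marker transcripts per well, minus blank, normalised to the geometric mean of two housekeeping transcripts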
Reading the numbers: BNIP3L mRNA: higher = more BNIP3L transcript after knockdown

Depletion of PDIA3 (GeneID 2923) came out at: BNIP3L mRNA, set 1 = 0.0974.
PCDHGB5 (GeneID 56101) showed BNIP3L mRNA, set 1 = 0.119.
For HIPK2 (GeneID 28996), the entry reads BNIP3L mRNA, set 1 = 0.107.
After knock-down of STRA6 (GeneID 64220) the results were BNIP3L mRNA, set 1 = 0.09.
RPL22 (GeneID 6146) showed BNIP3L mRNA, set 1 = 0.124.
Silencing of ERGIC2 (GeneID 51290) gave: BNIP3L mRNA, set 1 = 0.0776.
Against TRIM16 (GeneID 10626) the deposit lists BNIP3L mRNA, set 1 = 0.152.
Depletion of H2BC8 (GeneID 8339) resulted in: BNIP3L mRNA, set 1 = 0.144.
EIF2B4 (GeneID 8890) showed BNIP3L mRNA, set 1 = 0.125.
XYLT1 (GeneID 64131) scored BNIP3L mRNA, set 1 = 0.123.
Against UGT2A3 (GeneID 79799), the values are BNIP3L mRNA, set 1 = 0.13.
Depletion of ARL4C (GeneID 10123) came out at: BNIP3L mRNA, set 1 = 0.141.
